Test results as given in PubChem BioAssay AID445 (National Center for Advancing Translational Sciences (NCATS), 2006).
The list shows a part of the results. Further columns of the screen follow, without active or inactive calls. The list favours compounds with an active or inconclusive main result. Words in brackets tell the shape of the fitted curve; partial curves, single points and poor fits give uncertain potencies.

Assay: IkB Signaling
Details: ABC-DLBCL IkBa-CBG/CBR dual luciferase ratio (green luciferase fused to IkBa over red control in OCI-Ly3 lymphoma cells), 4 h; measured here: control luc red channel unless noted
Procedure, shortened: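 In this assay, an IκBα–CBG68 fusion accumulates when IKK-driven degradation is blocked; native CBR normalizes for cell number. OCI-Ly3 cells were treated 4 h with compound and doxycycline, then green and red light read after Chroma-Glo addition.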

SMILES | AC50
Cc1ccc(N2CCN(C(=O)c3c(C)oc4ncnc(N5CCCCC5)c34)CC2)c(C)c1 | 15.8 µM [falling, single point]
CCOC(=O)c1cccc(NC(=O)CCc2nc(-c3ccccc3F)no2)c1 | 12.6 µM [falling, partial curve]
C=C(C)Cn1c(N2CCC(Cc3ccccc3)CC2)nc2c1c(=O)[nH]c(=O)n2C | 39.8 µM [falling, single point]
O=C(NC1CC(=O)N(c2ccc(Cl)cc2)C1)C1CCCC1 (stereo not given) | 3.98 µM [rising, single point]
COc1ccc(NC(=O)CSc2nc3c(oc4ccccc43)c(=O)n2-c2ccccc2)cc1OC | 39.8 µM [falling, single point]
CCC(C)NC(=O)c1ccc2c(c1)nc1n2CCCCC1 (stereo not given) | 25.1 µM [falling, single point]
COc1ccccc1CNC(=O)CCCCn1c(=O)c2ccccc2n(Cc2ccccc2C)c1=O | 3.98 µM [rising, partial curve, poor fit]
COCCN1Cc2cccc(C(=O)Nc3ccc4c(c3)OCCO4)c2C1=O | 1 µM [rising, full curve, poor fit] [measured here: IkB-luc green channel]
CC(=O)c1c(C)n(-c2ccc(Cl)cc2)c2ccc(OC(=O)COc3ccccc3)cc12 | 10 µM [falling, partial curve]
Cc1nc(CC(=O)Nc2nc(-c3ccccc3)cs2)cs1 | 31.6 µM [falling, partial curve]
CCCOC(=O)c1ccc(Oc2c(-c3ccc(OCC)cc3O)n[nH]c2C)cc1 | 15.8 µM [falling, partial curve]
CN(Cc1ccccc1)S(=O)(=O)c1nnc(NC(=O)c2ccccc2Cl)s1 | 12.6 µM [falling, partial curve]
O=C(Nc1ccc(Cl)cc1C(=O)O)c1ccc2c(c1)C(=O)N(Cc1ccco1)C2=O | 2 µM [falling, full curve]
Cc1ccc(-n2nnnc2SCC(=O)Nc2cccc(NC(=O)c3ccco3)c2)cc1C | 12.6 µM [falling, partial curve]
CC1CCN(S(=O)(=O)c2ccc3c(ccc(=O)n3CC(=O)NCc3ccc(Cl)cc3)c2)CC1 | 0.316 µM [falling, full curve]
CCOc1ccc(Nc2nc3c(S(=O)(=O)c4ccc(CC)cc4)nnn3c3ccc(Cl)cc23)cc1 | 3.98 µM [rising, full curve]
CC1=C(/C=C/C(C)=C/C=C/C(C)=C/C(=O)Nc2ccc(O)cc2)C(C)(C)CCC1 | 1.26 µM [rising, full curve, poor fit] [measured here: IkB-luc green channel]
CC(=O)N1CCc2cc(Br)cc(S(=O)(=O)NCCc3ccc(Cl)cc3)c21 | 15.8 µM [falling, partial curve]
CC(=O)c1cccc(NC(=O)CCc2nc3cccnc3n2Cc2cccs2)c1 | 39.8 µM [falling, single point]
COc1ccc(CCNc2nc3ccc(C)cc3n3cnnc23)cc1OC | 3.16 µM [rising, partial curve]

SMILES | AC50
O=C(c1cccn1-c1nnc(N2CCCCC2)s1)N1CCN(c2ccc(Cl)cc2)CC1 | 25.1 µM [falling, partial curve]
Cc1occc1-c1nnc(SCC(=O)Nc2ccccc2)n1C(C)c1ccccc1 (stereo not given) | 39.8 µM [falling, single point]
CCc1c(C)nc2ncnn2c1N1CCCC(C(=O)NCc2ccc3c(c2)OCO3)C1 (stereo not given) | 39.8 µM [falling, single point]
COc1ccc(Cl)cc1N=C1NC(=O)CC(C(=O)Nc2ccccc2C(F)(F)F)S1 (stereo not given) | 12.6 µM [falling, partial curve]
COC(=O)c1ccc(OC)c(CSc2nnc(COc3ccc(Cl)cc3)o2)c1 | 12.6 µM [falling, partial curve]
COc1ccc(S(=O)(=O)N(CC(=O)Nc2cc(C)cc(C)c2)c2ccc(Cl)cc2)cc1 | 2.51 µM [falling, full curve, poor fit]
CCn1c(C(=O)N2CCC(C(=O)N3CCN(c4ccc(OC)cc4)CC3)CC2)cc2sccc21 | 31.6 µM [falling, single point]
CCc1ccccc1N1CC(c2nc3ccccc3n2CCOc2ccc(Cl)c(C)c2)CC1=O (stereo not given) | 15.8 µM [falling, partial curve]
CN(C)c1ccc(C(=O)Nc2c(C(=O)NC(C)(C)C)oc3ccccc23)cc1 | 25.1 µM [falling, single point]
CC1=C(c2ccc(Cl)cc2)S(=O)(=O)N=C1N1CCN(c2cc(C)ccc2C)CC1 | 6.31 µM [rising, partial curve]
CC(=O)Nc1ccc(Cc2ccc3[nH]c(=O)cc(C)c3c2)cc1 | 3.98 µM [rising, partial curve] [measured here: IkB-luc green channel]
Cc1cc(C)cc(-n2c(SCC(=O)Nc3ccc4c(c3)OCO4)nc3c([nH]c4ccccc43)c2=O)c1 | 39.8 µM [rising, single point]
CCCN1CCCc2cc(CN(CCCN3CCOCC3)C(=O)Nc3ccc(Cl)c(Cl)c3)ccc21 | 7.94 µM [falling, partial curve]
COc1ccc2sc(N(Cc3cccnc3)C(=O)CCc3ccccc3)nc2c1 | 2.51 µM [rising, partial curve] [measured here: IkB-luc green channel]
CCOC(=O)c1c(S(=O)(=O)N2CCC(C(=O)NCc3ccccc3Cl)CC2)c(C)n(C)c1C | 0.2 µM [falling, full curve, poor fit]
COc1cccc(CNC(=O)c2ccc3c(c2)sc2nc(-c4cccc(OC)c4)cn23)c1 | 39.8 µM [falling, partial curve]
COCCn1ccc2c(OCC(=O)Nc3cccc(C(F)(F)F)c3)cccc2c1=O | 39.8 µM [falling, single point]
Cc1cccc(N2CCN(C(=O)c3cnn(-c4ccccc4)c3C3CCN(C(=O)OC(C)(C)C)CC3)CC2)c1C | 15.8 µM [falling, partial curve]
COc1ccccc1CNC(=O)C1CCN(S(=O)(=O)Cc2ccccc2)CC1 | 6.31 µM [rising, single point]
CCC(=O)N1c2ccccc2CC1C(=O)NCCN1CCN(c2cc(Cl)ccc2C)CC1 (stereo not given) | 12.6 µM [falling, partial curve]

SMILES | AC50
Cc1cc(C)cc(OCC(=O)N2CCC(c3nc4ccccc4o3)CC2)c1 | 20 µM [falling, partial curve]
CCOc1ccc(NC(=O)c2c(NCc3cc(OC)c(OC)cc3OC)sc3c2CCCC3)cc1 | 31.6 µM [falling, single point]
N#C/C(=C\c1ccc(F)cc1)c1nc(-c2ccc(-c3ccccc3)cc2)cs1 | 0.316 µM [falling, full curve]
COc1cccc(CC(=O)Nc2c(C(=O)N3CCN(c4ccccc4F)CC3)oc3ccccc23)c1 | 12.6 µM [falling, partial curve]
CCCC1=Nc2cc(C(=O)NC3CCCCC3)ccc2Sc2ccc(C)cc21 | 0.794 µM [rising, full curve]
COc1ccc(-c2cc(C(F)(F)F)n3nc(C(=O)NCc4ccco4)cc3n2)cc1 | 25.1 µM [falling, single point]
COc1cc(C2CC(=O)c3c([nH]c(C(=O)OC4CCCC4)c3C)C2)cc(OC)c1OC (stereo not given) | 12.6 µM [falling, partial curve]
Clc1ccc(-c2cn3cc(Cc4ccccc4)sc3n2)cc1 | 6.31 µM [falling, partial curve]
CCOc1ccc(CCNC(=O)c2ccc(CSCc3ccccc3C)o2)cc1OCC | 15.8 µM [falling, partial curve]
O=C(CSc1nc(=O)n(Cc2ccncc2)c2c1CCC2)Nc1cccc(F)c1 | 10 µM [falling, partial curve]
CCN(C(=O)C(NS(=O)(=O)c1ccc(Br)s1)c1ccccc1)c1ccc(C)c(C)c1 (stereo not given) | 25.1 µM [falling, single point]
CC1(C)CC(=O)c2cc(-c3nc(-c4ccc(F)cc4)cs3)c(=O)[nH]c2C1 | 25.1 µM [rising, partial curve, poor fit]
CCc1cccc(NC(=O)C(Cc2ccccc2)NS(=O)(=O)c2cccs2)c1 (stereo not given) | 25.1 µM [falling, single point]
COc1ccc(-n2c(=O)c3c4c(sc3n(Cc3ccccc3C)c2=O)CCCC4)c(OC)c1 | 3.98 µM [falling, partial curve]
CCN1c2ccccc2-c2nc3ccccc3n2C1c1ccncc1 (stereo not given) | 12.6 µM [falling, partial curve]
CC(=O)c1ccc(Nc2cc(C)nc3nc(Cc4ccccc4)nn23)cc1 | 12.6 µM [falling, partial curve]
CCOc1ccc(C(=O)NCCc2csc(-c3cccc(C)c3)n2)cc1 | 7.94 µM [falling, full curve, poor fit]
CC(C)CC(=O)Nc1nnc(S(=O)(=O)N2c3ccccc3CC2C)s1 (stereo not given) | 15.8 µM [falling, single point]
Cc1ccc(C)c(N2CCN(CCCNC(=O)c3ccc4nc(N5CCC(C)CC5)sc4c3)CC2)c1 | 0.501 µM [falling, full curve]
COc1ccccc1NC(=O)CN1CCN(CC(=O)Nc2ccc3c(c2)OCCO3)CC1 | 12.6 µM [falling, partial curve]

Of the compounds above, these contain a CF3 group.
SMILES | AC50
COc1ccc(Cl)cc1N=C1NC(=O)CC(C(=O)Nc2ccccc2C(F)(F)F)S1 (stereo not given) | 12.6 µM [falling, partial curve]
COCCn1ccc2c(OCC(=O)Nc3cccc(C(F)(F)F)c3)cccc2c1=O | 39.8 µM [falling, single point]
COc1ccc(-c2cc(C(F)(F)F)n3nc(C(=O)NCc4ccco4)cc3n2)cc1 | 25.1 µM [falling, single point]
